{"source": "the supplement of paper PMC8728848", "binders": {"B1": {"name": "SUN4 (Saccharomyces cerevisiae), P53616 (protein)", "chain": "MGSSHHHHHHSSGLVPRGSHNGSIYGDLADFSGPYEKFEDGTIPCGQFPSGQGVIPISWLDEGGWSGVENTDTSTGGSCKEGSYCSYACQPGMSKTQWPSDQPSDGRSIGGLLCKDGYLYRSNTDTDYLCEWGVDAAYVVSELSNDVAICRTDYPGTENMVIPTYVQAGDSLPLTVVDQDTYYTWQGLKTSAAYYVNNAGISVEDACVWGSSSSGVGNWAPLNFGAGSSDGVAYLSLIPNPNNGNALNFNVKIVAADDSSTVNGECIYENGSFSGGSDGCTVSVTAGKAKFVLYN"}}, "assay_in_all_cases": "glycan array binding signal (z-score within array); higher = stronger binding", "details_in_all_cases": "glycan notation: IUPAC condensed, linker removed; mutation: Q318A", "key": {"[1]": {"target": "Gal(b1-4)GlcNAc(b1-3)Gal(b1-4)GlcNAc(b1-3)[Gal(b1-4)GlcNAc(b1-3)Gal(b1-4)GlcNAc(b1-6)]GalNAc", "procedure,_shortened": "(§1)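 The binding signal is a Z-score computed within each array and averaged over linkers. Arrays of the same protein sequence at different concentrations or buffers were also averaged together. Data originate from 3228 arrays in the Consortium for Functional Glycomics database, kept only where the protein sequence was available.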"}, "[2]": {"target": "Gal(b1-4)GlcNAc(b1-3)Gal(b1-4)GlcNAc(b1-6)[Gal(b1-3)]GalNAc", "procedure,_shortened": "as §1"}, "[3]": {"target": "Gal(b1-4)GlcNAc(b1-3)Gal(b1-4)[Fuc(a1-3)]GlcNAc(b1-3)Gal(b1-4)[Fuc(a1-3)]GlcNAc", "procedure,_shortened": "as §1"}, "[4]": {"target": "Gal(b1-4)GlcNAc(b1-3)GalNAc", "procedure,_shortened": "as §1"}, "[5]": {"target": "Gal(b1-4)GlcNAc(b1-3)[Fuc(a1-3)GlcNAc(b1-6)]Gal(b1-4)Glc", "procedure,_shortened": "as §1"}, "[6]": {"target": "Gal(b1-4)GlcNAc(b1-3)[Gal(b1-4)GlcNAc(b1-6)]Gal(b1-4)GlcNAc", "procedure,_shortened": "as §1"}, "[7]": {"target": "Gal(b1-4)GlcNAc(b1-3)[GlcNAc(b1-6)]Gal(b1-4)GlcNAc", "procedure,_shortened": "as §1"}, "[8]": {"target": "Gal(b1-4)GlcNAc(b1-6)Gal(b1-4)GlcNAc", "procedure,_shortened": "as §1"}, "[9]": {"target": "Gal(b1-4)GlcNAc(b1-6)GalNAc", "procedure,_shortened": "as §1"}, "[10]": {"target": "Gal(b1-4)GlcNAc(b1-6)[Gal(b1-3)]GalNAc", "procedure,_shortened": "as §1"}, "[11]": {"target": "Gal(b1-4)GlcNAc(b1-6)[Gal(b1-4)GlcNAc(b1-3)]GalNAc", "procedure,_shortened": "as §1"}, "Gal(b1-4)GlcNAc6P": {"target": "Gal(b1-4)GlcNAc6P", "procedure,_shortened": "as §1"}, "Gal(b1-6)Gal": {"target": "Gal(b1-6)Gal", "procedure,_shortened": "as §1"}, "Gal3S(b1-3)GalNAc": {"target": "Gal3S(b1-3)GalNAc", "procedure,_shortened": "as §1"}, "Gal3S(b1-3)GlcNAc": {"target": "Gal3S(b1-3)GlcNAc", "procedure,_shortened": "as §1"}, "[12]": {"target": "Gal3S(b1-3)[Fuc(a1-4)]GlcNAc", "procedure,_shortened": "as §1"}, "Gal3S(b1-4)Glc": {"target": "Gal3S(b1-4)Glc", "procedure,_shortened": "as §1"}, "Gal3S(b1-4)Glc6S": {"target": "Gal3S(b1-4)Glc6S", "procedure,_shortened": "as §1"}, "Gal3S(b1-4)GlcNAc": {"target": "Gal3S(b1-4)GlcNAc", "procedure,_shortened": "as §1"}, "[13]": {"target": "Gal3S(b1-4)[Fuc(a1-3)]Glc6S", "procedure,_shortened": "as §1"}, "[14]": {"target": "Gal3S(b1-4)[Fuc(a1-3)]GlcNAc", "procedure,_shortened": "as §1"}, "[15]": {"target": "Gal3S(b1-4)[Fuc(a1-3)]GlcNAc6S", "procedure,_shortened": "as §1"}, "Gal3S4S(b1-4)GlcNAc": {"target": "Gal3S4S(b1-4)GlcNAc", "procedure,_shortened": "as §1"}, "Gal3S6S(b1-4)GlcNAc": {"target": "Gal3S6S(b1-4)GlcNAc", "procedure,_shortened": "as §1"}, "Gal3S6S(b1-4)GlcNAc6S": {"target": "Gal3S6S(b1-4)GlcNAc6S", "procedure,_shortened": "as §1"}, "Gal4S(b1-4)GlcNAc": {"target": "Gal4S(b1-4)GlcNAc", "procedure,_shortened": "as §1"}, "Gal4S6S(b1-4)GlcNAc": {"target": "Gal4S6S(b1-4)GlcNAc", "procedure,_shortened": "as §1"}, "Gal6P(b1-4)GlcNAc": {"target": "Gal6P(b1-4)GlcNAc", "procedure,_shortened": "as §1"}, "Gal6S(b1-3)GlcNAc": {"target": "Gal6S(b1-3)GlcNAc", "procedure,_shortened": "as §1"}, "Gal6S(b1-3)GlcNAc6S": {"target": "Gal6S(b1-3)GlcNAc6S", "procedure,_shortened": "as §1"}, "Gal6S(b1-4)Glc": {"target": "Gal6S(b1-4)Glc", "procedure,_shortened": "as §1"}, "Gal6S(b1-4)Glc6S": {"target": "Gal6S(b1-4)Glc6S", "procedure,_shortened": "as §1"}, "Gal6S(b1-4)GlcNAc": {"target": "Gal6S(b1-4)GlcNAc", "procedure,_shortened": "as §1"}, "Gal6S(b1-4)GlcNAc6S": {"target": "Gal6S(b1-4)GlcNAc6S", "procedure,_shortened": "as §1"}, "GalNAc(a1-3)Gal": {"target": "GalNAc(a1-3)Gal", "procedure,_shortened": "as §1"}, "GalNAc(a1-3)GalNAc": {"target": "GalNAc(a1-3)GalNAc", "procedure,_shortened": "as §1"}, "[16]": {"target": "GalNAc(a1-3)GalNAc(b1-3)Gal(a1-4)Gal(b1-4)Glc", "procedure,_shortened": "as §1"}}, "note": "The other results are listed elsewhere or left out."}
{"binder": "B1", "values": [{"measurement": "glycan array binding signal (z-score)", "setting": "[1]", "value": -0.273}, {"measurement": "glycan array binding signal (z-score)", "setting": "[2]", "value": 0.13}, {"measurement": "glycan array binding signal (z-score)", "setting": "[3]", "value": 0.316}, {"measurement": "glycan array binding signal (z-score)", "setting": "[4]", "value": -0.472}, {"measurement": "glycan array binding signal (z-score)", "setting": "[5]", "value": 0.019}, {"measurement": "glycan array binding signal (z-score)", "setting": "[6]", "value": 0.278}, {"measurement": "glycan array binding signal (z-score)", "setting": "[7]", "value": -0.193}, {"measurement": "glycan array binding signal (z-score)", "setting": "[8]", "value": -0.572}, {"measurement": "glycan array binding signal (z-score)", "setting": "[9]", "value": 0.431}, {"measurement": "glycan array binding signal (z-score)", "setting": "[10]", "value": -0.548}, {"measurement": "glycan array binding signal (z-score)", "setting": "[11]", "value": 0.195}, {"measurement": "glycan array binding signal (z-score)", "setting": "Gal(b1-4)GlcNAc6P", "value": 0.216}, {"measurement": "glycan array binding signal (z-score)", "setting": "Gal(b1-6)Gal", "value": -0.873}, {"measurement": "glycan array binding signal (z-score)", "setting": "Gal3S(b1-3)GalNAc", "value": -1.22}, {"measurement": "glycan array binding signal (z-score)", "setting": "Gal3S(b1-3)GlcNAc", "value": 0.444}, {"measurement": "glycan array binding signal (z-score)", "setting": "[12]", "value": 0}, {"measurement": "glycan array binding signal (z-score)", "setting": "Gal3S(b1-4)Glc", "value": 0.539}, {"measurement": "glycan array binding signal (z-score)", "setting": "Gal3S(b1-4)Glc6S", "value": 0.465}, {"measurement": "glycan array binding signal (z-score)", "setting": "Gal3S(b1-4)GlcNAc", "value": 0.228}, {"measurement": "glycan array binding signal (z-score)", "setting": "[13]", "value": -0.254}, {"measurement": "glycan array binding signal (z-score)", "setting": "[14]", "value": 0.614}, {"measurement": "glycan array binding signal (z-score)", "setting": "[15]", "value": 1.28}, {"measurement": "glycan array binding signal (z-score)", "setting": "Gal3S4S(b1-4)GlcNAc", "value": -0.608}, {"measurement": "glycan array binding signal (z-score)", "setting": "Gal3S6S(b1-4)GlcNAc", "value": -0.478}, {"measurement": "glycan array binding signal (z-score)", "setting": "Gal3S6S(b1-4)GlcNAc6S", "value": -0.016}, {"measurement": "glycan array binding signal (z-score)", "setting": "Gal4S(b1-4)GlcNAc", "value": -0.432}, {"measurement": "glycan array binding signal (z-score)", "setting": "Gal4S6S(b1-4)GlcNAc", "value": 0.261}, {"measurement": "glycan array binding signal (z-score)", "setting": "Gal6P(b1-4)GlcNAc", "value": -0.125}, {"measurement": "glycan array binding signal (z-score)", "setting": "Gal6S(b1-3)GlcNAc", "value": 0.725}, {"measurement": "glycan array binding signal (z-score)", "setting": "Gal6S(b1-3)GlcNAc6S", "value": -0.115}, {"measurement": "glycan array binding signal (z-score)", "setting": "Gal6S(b1-4)Glc", "value": -0.206}, {"measurement": "glycan array binding signal (z-score)", "setting": "Gal6S(b1-4)Glc6S", "value": -1.18}, {"measurement": "glycan array binding signal (z-score)", "setting": "Gal6S(b1-4)GlcNAc", "value": -0.239}, {"measurement": "glycan array binding signal (z-score)", "setting": "Gal6S(b1-4)GlcNAc6S", "value": 1.22}, {"measurement": "glycan array binding signal (z-score)", "setting": "GalNAc(a1-3)Gal", "value": 0.233}, {"measurement": "glycan array binding signal (z-score)", "setting": "GalNAc(a1-3)GalNAc", "value": -1.37}, {"measurement": "glycan array binding signal (z-score)", "setting": "[16]", "value": -0.695}]}
